Data reported in patent publication US20250051578A1, “RHODAMINE-METHYLENE BLUE DERIVATIVE FLUORESCENT PROBE AND PREPARATION METHOD AND APPLICATION THEREOF” (Henan Polytechnic University, priority 2023, published 2025).

What was measured:
[1] = Fluorescence detection of ClO^− by the probe in EtOH:PBS solution (selectivity and titration); conditions: probe 1×10^−5 mol/L, excitation 630 nm
[2] = Fluorescence detection of ATP by the probe in EtOH:PBS solution (selectivity and titration); conditions: probe 1×10^−5 mol/L, excitation 360 nm

## CCN(CC)c1ccc2c(c1)Oc1cc(N(CC)CC)ccc1C21c2ccccc2C(=O)N1CCN1CCN(C(=O)N2c3ccc(N(C)C)cc3Sc3cc(N(C)C)ccc32)CC1
[1]; EtOH:PBS pH=7.4, 5:95 v:v, emission 680 nm
  detection limit for the ClO^−: 0.90 nM
[1]; analytes 2.5×10^−4 mol/L, FIG. 4A
  selectivity of fluorescence response among analytes (anions, cations, thiols, ROS): obvious responses only to the ClO^− and the ATP
[2]; EtOH:PBS pH=7.4, 5:95 v:v, emission 590 nm
  detection limit for the ATP: 23.60 nM
[2]; analytes 1×10^−2 mol/L, FIG. 4B
  selectivity of fluorescence response among analytes (phosphates, thiols, nucleotides): obvious responses only to the ClO^− and the ATP
